Assay [1] concerns the target T1, hnRNPM-GFP (heterogeneous nuclear ribonucleoprotein M, C-terminally GFP-tagged) (UniProt P52272).
T1 sequence: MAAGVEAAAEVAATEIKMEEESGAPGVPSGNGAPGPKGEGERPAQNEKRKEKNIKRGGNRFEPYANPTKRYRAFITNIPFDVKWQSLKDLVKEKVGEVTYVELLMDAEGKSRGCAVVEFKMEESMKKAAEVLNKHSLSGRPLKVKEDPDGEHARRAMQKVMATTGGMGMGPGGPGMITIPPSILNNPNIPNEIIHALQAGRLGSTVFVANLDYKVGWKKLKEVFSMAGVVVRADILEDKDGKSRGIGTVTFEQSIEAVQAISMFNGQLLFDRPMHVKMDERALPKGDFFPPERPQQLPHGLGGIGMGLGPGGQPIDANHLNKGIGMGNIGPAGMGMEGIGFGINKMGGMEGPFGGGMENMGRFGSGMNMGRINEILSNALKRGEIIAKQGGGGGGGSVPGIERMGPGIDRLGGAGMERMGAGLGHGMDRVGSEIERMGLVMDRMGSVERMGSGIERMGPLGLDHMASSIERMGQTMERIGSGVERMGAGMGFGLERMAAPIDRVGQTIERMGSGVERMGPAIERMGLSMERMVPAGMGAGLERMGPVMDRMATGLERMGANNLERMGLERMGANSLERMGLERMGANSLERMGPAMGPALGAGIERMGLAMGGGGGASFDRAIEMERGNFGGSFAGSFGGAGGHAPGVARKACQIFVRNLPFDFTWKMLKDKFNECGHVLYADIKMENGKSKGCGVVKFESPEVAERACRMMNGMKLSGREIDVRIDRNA
Briefly: co-IP.

By UniProt entry, the sequences of proteins in these tests, tags left out.
UniProt Q15717, whole entry: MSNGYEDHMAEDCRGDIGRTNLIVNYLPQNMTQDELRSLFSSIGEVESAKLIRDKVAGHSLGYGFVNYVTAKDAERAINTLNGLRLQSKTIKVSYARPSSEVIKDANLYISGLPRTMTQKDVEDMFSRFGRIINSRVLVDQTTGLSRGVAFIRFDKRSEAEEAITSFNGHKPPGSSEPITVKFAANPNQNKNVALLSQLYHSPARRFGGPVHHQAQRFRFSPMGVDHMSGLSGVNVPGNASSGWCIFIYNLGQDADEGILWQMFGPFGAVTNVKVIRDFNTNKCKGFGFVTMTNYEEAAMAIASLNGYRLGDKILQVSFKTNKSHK
UniProt Q04206, whole entry: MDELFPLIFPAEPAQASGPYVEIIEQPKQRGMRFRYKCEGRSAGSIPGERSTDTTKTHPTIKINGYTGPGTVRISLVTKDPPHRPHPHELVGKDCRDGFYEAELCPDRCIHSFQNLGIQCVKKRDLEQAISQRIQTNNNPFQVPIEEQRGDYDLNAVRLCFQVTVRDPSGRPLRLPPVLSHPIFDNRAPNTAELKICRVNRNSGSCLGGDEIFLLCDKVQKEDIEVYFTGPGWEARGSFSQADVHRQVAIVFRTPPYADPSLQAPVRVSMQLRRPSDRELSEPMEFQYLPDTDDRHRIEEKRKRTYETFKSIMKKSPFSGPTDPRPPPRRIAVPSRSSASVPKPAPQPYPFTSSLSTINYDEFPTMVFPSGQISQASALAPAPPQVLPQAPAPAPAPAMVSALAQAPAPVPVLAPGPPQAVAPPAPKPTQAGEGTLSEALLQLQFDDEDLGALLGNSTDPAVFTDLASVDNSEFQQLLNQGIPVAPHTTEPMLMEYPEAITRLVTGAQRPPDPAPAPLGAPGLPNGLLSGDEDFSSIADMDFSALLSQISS
UniProt Q8N884, whole entry: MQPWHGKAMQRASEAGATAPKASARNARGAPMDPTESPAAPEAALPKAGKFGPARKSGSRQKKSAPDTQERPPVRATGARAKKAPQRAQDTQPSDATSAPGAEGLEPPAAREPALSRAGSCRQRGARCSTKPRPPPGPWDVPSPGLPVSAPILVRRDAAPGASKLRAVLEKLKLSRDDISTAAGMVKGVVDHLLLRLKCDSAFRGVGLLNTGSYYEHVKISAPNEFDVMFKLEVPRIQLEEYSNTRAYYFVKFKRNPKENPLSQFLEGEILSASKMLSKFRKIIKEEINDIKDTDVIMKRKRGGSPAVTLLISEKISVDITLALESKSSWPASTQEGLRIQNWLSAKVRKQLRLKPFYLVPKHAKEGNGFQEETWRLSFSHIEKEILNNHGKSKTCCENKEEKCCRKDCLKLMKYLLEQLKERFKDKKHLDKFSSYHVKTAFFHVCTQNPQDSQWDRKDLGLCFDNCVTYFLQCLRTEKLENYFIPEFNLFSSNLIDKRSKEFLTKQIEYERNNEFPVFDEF

In assay [2] the target is T1, hnRNPM-GFP (heterogeneous nuclear ribonucleoprotein M, C-terminally GFP-tagged). Briefly: proximity ligation.
Another assay has as its target ELAVL1-FLAG (UniProt Q15717). Put plainly: co-IP.

Among the data in paper doi:10.1101/2023.06.23.545108 are binding values, retold here.

Results are given in words; binding and its absence hold for the method and conditions named. Binding seen in cells or lysates may run through a third protein. Some entries that bind do so weakly or less than the wild type. For part of these data: Where a sequence is shown, tags or fusion partners need not be part of it.

As to “ELAV-like protein 1 (ELAVL1), endogenous in THP-1 (from UniProt Q15717 1-326)”, the binding entry in assay [1] and in assay [2] was “binds” throughout.
Regarding “NF-κB p65 phosphorylated at Ser536 (NF-κB pp65-Ser536), endogenous in THP-1 (from UniProt Q04206 1-551)”, in assay [1], the binding entry is given as “binds”.
“NF-κB p65, endogenous in HEK293FT (from UniProt Q04206 1-551)”: the binding entry with ELAVL1-FLAG was “binds”.
Turning to “NF-κB p65, endogenous in THP-1 (from UniProt Q04206 1-551)”, the binding result in assay [1] is “binds”.
On the same count and under the same terms, with “cyclic GMP-AMP synthase (cGAS), endogenous in THP-1 (from UniProt Q8N884 1-522)” the entry was “no binding”.
